“And” between values parts separate entries of the source, which are not always exact repeats. Equal values may be shown once. In all, about 300,000 compounds went through this assay and about 5,400 (1.8%) were called active. The inconclusive results got no clear call from the source; some entries with a clear call stand among them for comparison. The call rests on the fitted dose curve; tested in HEK293 cells. A potency beside an inconclusive call is a rough fit, not a confirmed value.
Test: qHTS for inhibitors of binding or entry into cells for Marburg Virus
Settings: Marburg virus pseudotyped entry inhibition, cell reporter; series mostly up to 37.8 µM
Potency means the concentration at half of the fitted maximal effect.

| SMILES | Potency |
| --- | --- |
| COc1c(C)cccc1C(=O)Nc1ccc(N2CCOCC2)c(Cl)c1 | inconclusive: 0.0891 µM [activator, full curve, poor fit] |
| COc1ccc(-c2cc(C(F)(F)F)n3nc(C(=O)NCCCn4ccnc4)cc3n2)cc1 | inactive |
| CCCCC(=O)NN(C)c1nc(-c2ccccc2)nnc1C(F)(F)F | inconclusive: 10 µM [inhibitor, partial curve] |
| OCC1(Cc2ccc(Cl)cc2)CCN(CCCc2ccccc2)CC1 | inconclusive: 17.8 µM [inhibitor, partial curve, poor fit] |
| O=C(O)CN1C(=O)C2C3CC(C2C1=O)C1C(c2ccc(F)cc2)c2sc(=O)[nH]c2SC31 (centres undefined) | inconclusive: 3.55 µM [inhibitor, single point] |
| CCN(Cc1nc(-c2ccc(OC)cc2)no1)C(=O)c1ccoc1C | inconclusive: 3.16 µM [inhibitor, single point] |
| COc1ccccc1N1CCN(C(=O)c2ccccc2Oc2ccccc2)CC1 | inconclusive: 15.8 µM [inhibitor, partial curve, poor fit] |
| O=C(NC1CCOC1)c1ccc(OC2CCN(CCc3ccccc3)CC2)cc1 (centres undefined) | inconclusive: 12.6 µM [inhibitor, partial curve, poor fit] |
| Cc1cccc(C(=O)N(Cc2ccc(C)o2)C2CCS(=O)(=O)C2)c1 (centres undefined) | inactive |
| CC(C)(C)C(=O)Nc1nnc(CCc2ccccc2)s1 | inconclusive: 20 µM [inhibitor, single point] |
| COc1cccc(NC2c3ccccc3C(=O)N2Cc2ccccc2Cl)c1 (centres undefined) | inconclusive: 7.94 µM [inhibitor, partial curve, poor fit] |
| CCCCNC(=O)c1ccc2nc(-c3ccco3)c(-c3ccco3)nc2c1 | inactive |
| CN(C)c1ccc(C2CC(c3ccccc3)=Nc3nc(-c4ccccc4)cn32)cc1 (centres undefined) | inconclusive: 0.092 µM [inhibitor, partial curve, poor fit] |
| O=C(CCc1nc2ccccc2[nH]1)Nc1ccc2c(c1)OCO2 | inconclusive: 5.01 µM [activator, partial curve, poor fit] |
| CCNCCC(=O)N1c2ccccc2Sc2ccc(NC(=O)OCC)cc21 | inconclusive: 10 µM [inhibitor, partial curve, poor fit] |
| O=C(Cc1ccc(Cl)cc1)c1ccccc1 | inconclusive: 11.2 µM [activator, single point] |
| Cc1ccc(S(=O)(=O)N2CCN(S(=O)(=O)c3ccc(C)cc3)C2c2ccccc2)cc1 | inconclusive: 29.1 µM [inhibitor, single point] |
| O=C(COc1ccc(/C=N/NC(=O)c2ccncc2)cc1)Nc1ccccc1 | inconclusive: 35.5 µM [inhibitor, single point] |
| CC(C)(C)NC(=O)CN1CCN(C(=O)CCl)CC1 | inconclusive: 22.4 µM [inhibitor, partial curve, poor fit] |
| Cc1cccn2c(=O)c(C=NCCO)c(NCc3ccco3)nc12 | inactive |
| COc1ccc(CCC(=O)Nc2cccc(Cl)c2)cc1 | inactive |
| COc1ccccc1-c1nc2ccccc2nc1-c1ccccc1 | inconclusive: 23.1 µM [inhibitor, single point] |
| O=C(c1ccc(S(=O)(=O)c2ccccc2Cl)c([N+](=O)[O-])c1)N1CCCCCC1 | inconclusive: 10 µM [inhibitor, partial curve, poor fit] |

| SMILES | Potency |
| --- | --- |
| CCOc1cc(C2C(C(=O)Nc3ccc(OC)cc3)=C(C)Nc3nc(SC)nn32)ccc1O (centres undefined) | inconclusive: 22.4 µM [inhibitor, single point] |
| Cc1sc2ncn(CC(=O)NCCCC(=O)N3CCCCC3)c(=O)c2c1C | inactive |
| COc1ccccc1/C=C/C=NC1C(=O)N(c2ccccc2)[N+](C)=C1C (centres undefined) | inconclusive: 12.6 µM [inhibitor, single point] |
| Cc1ccc(N(CC(=O)O)[C@H]2SC(=O)NC2=O)cc1 | inconclusive: 35.5 µM [activator, single point] |
| Cc1ccc(COc2coc(CN3CCN(C(=O)c4ccco4)CC3)cc2=O)cc1 | inactive |
| O=C(Nc1ccc(Cl)c(Cl)c1)N1CCC(N2CCCCC2)CC1 | inactive |
| CCc1cc2c(=O)n(-c3ccccc3)cnc2s1 | inconclusive: 1.26 µM [activator, partial curve, poor fit] |
| CC(=O)Nc1cccc(-c2nc3ccccc3s2)c1 | inconclusive: 2.24 µM [activator, partial curve, poor fit] |
| COc1ccc(/C=C2\CN(Cc3ccccc3)C/C(=C\c3ccc(OC)cc3OC)C2=O)c(OC)c1 | inconclusive: 5.8 µM [inhibitor, partial curve] |
| C=CCNc1nc(N2CCOCC2)nc(N2CCOCC2)n1 | inactive |
| c1ccc(-c2csc3ncnc(N4CCc5ccccc5C4)c23)cc1 | inconclusive: 10 µM [inhibitor, single point] |
| Cc1ccc(N/N=C/c2ccc3c(c2)OCCO3)cc1Cl | inconclusive: 2.24 µM [activator, full curve] |
| O=[N+]([O-])c1ccc(N2CCOCC2)c([N+](=O)[O-])c1 | inactive |
| Cc1cc(NC(=O)CSc2nncn2N)no1 | inactive |
| COc1ccc(C/C(N)=N/n2cnnc2)cc1Cl | inactive |
| COc1ccc(-n2cc(C(=O)c3cc(Cl)ccc3O)cc(C#N)c2=O)cc1 | inactive |
| O=C(/C=C/c1ccccc1)NC1CC2CCC1C2 (centres undefined) | inactive and inconclusive: 31.6 µM [activator, single point] |
| Cc1ccc2c(=O)cc(C(=O)Nc3ccc(S(=O)(=O)Nc4nc(C)cc(C)n4)cc3)oc2c1 | inactive |
| CCC(C)(C)NC(=O)C(c1ccco1)N(C(=O)Cn1nnc2ccccc21)c1ccc2c(c1)OCO2 (centres undefined) | inconclusive: 3.16 µM [inhibitor, single point] |
| CC(C(=O)O)N1C(=O)/C(=C/c2cccn2C)SC1=S (centres undefined) | inactive |
| CC12CCC(=O)C=C1CCC1C2CCC2(C)C1CC[C@]2(O)C(=O)CO (some centres undefined) | inconclusive: 3.98 µM [activator, full curve, poor fit] |
| OC(COC(c1ccc(Cl)cc1)c1ccc(Cl)cc1)CN1CCN(c2ccccn2)CC1 (centres undefined) | inconclusive: 12.6 µM [inhibitor, single point] |
| CCOc1ccc(NC(=S)Nc2ccc(Br)cc2Cl)cc1 | inactive |

Part of the list above, with bars between the fields.
SMILES | Potency
CCN(Cc1nc(-c2ccc(OC)cc2)no1)C(=O)c1ccoc1C | inconclusive: 3.16 µM [inhibitor, single point]
O=C(Cc1ccc(Cl)cc1)c1ccccc1 | inconclusive: 11.2 µM [activator, single point]
CCc1cc2c(=O)n(-c3ccccc3)cnc2s1 | inconclusive: 1.26 µM [activator, partial curve, poor fit]

(list continues)

| SMILES | Potency |
| --- | --- |
| COc1ccccc1-c1cc(-c2ccccc2)nc(=O)[nH]1 | inconclusive: 1.26 µM [inhibitor, partial curve, poor fit] |
| CN(c1ccccc1)S(=O)(=O)c1ccc(C(=O)Nc2nnc(-c3ccc(F)cc3)o2)cc1 | inconclusive: 2.82 µM [inhibitor, full curve] |
| COc1ccc(CC(=O)NNC(=S)Nc2ccccc2)cc1Cl | inactive |
| FC(F)(F)c1ccccc1-c1nc(-c2ccncc2)no1 | inconclusive: 2.51 µM [inhibitor, partial curve, poor fit] |
| Nc1cc(S(=O)(=O)N2CCCCC2)ccc1Oc1ccc(Cl)cc1 | inconclusive: 29.1 µM [inhibitor, single point] |
| C=C(C)c1cccc(C(C)(C)NC(=O)NCc2cccnc2)c1 | inactive |
| COc1cccc(C(=O)C2CCCN(Cc3ccc(F)cc3)C2)c1 (centres undefined) | inconclusive: 8.91 µM [inhibitor, partial curve, poor fit] |
| CCOC(=O)Cn1nc(-c2ccccc2)c2cnc3ccc(OCC)cc3c21 | inactive |
| N#CCc1c(C#N)c(N)nc(N2CCN(S(=O)(=O)c3ccccc3)CC2)c1C#N | inconclusive: 3.16 µM [inhibitor, partial curve, poor fit] |
| CCCN(CCC)CCNC(=O)CN1C(=O)COc2ccc(S(=O)(=O)N3CCC(C)CC3)cc21 | inactive |
| COC1=C(Nc2ccc(OC)cc2)C(=O)C(OC)=C(Nc2ccc(OC)cc2)C1=O | inactive |
| O=C(N/N=C/c1cccc(OC(=O)c2cccc(Br)c2)c1)c1ccncc1 | inactive |
| NC(=NCCc1ccccc1)NC(=O)c1cc(Cl)ccc1O | inconclusive: 1.41 µM [activator, partial curve, poor fit] |
| C=CCn1c(=S)[nH]c2cc(-c3ccccc3)sc2c1=O | inactive |
| Cc1cc(Nc2cccc(F)c2)n2ncnc2n1 | inconclusive: 29.1 µM [activator, single point] |
| COc1ccc(CCN2C(=O)C(Oc3ccccc3C)C2c2ccc3c(c2)OCO3)cc1 (centres undefined) | inconclusive: 12.6 µM [inhibitor, partial curve, poor fit] |
| COc1cc(C)c(NC(c2ccccc2)c2ccccc2)cc1OC | inconclusive: 5.01 µM [activator, full curve] |
| Cc1ccc(OCC(=O)NCC2(N3CCOCC3)CCCCC2)cc1C | inconclusive: 22.4 µM [inhibitor, single point] |
| COc1cccc(-c2nnc(NC(=O)c3ccc(S(=O)(=O)N(CC(C)C)CC(C)C)cc3)o2)c1 | active: 1.26 µM |
| COc1cccc(-c2nnc(Nc3nc4c(F)cccc4s3)o2)c1 | inconclusive: 23.1 µM [inhibitor, single point] |
| CC(=O)Oc1cc2c(cc1Cl)C1(CC(c3ccccc3Cl)O2)CC(C)(C)NC(=S)N1 (centres undefined) | inconclusive: 22.4 µM [inhibitor, single point] |
| Cc1ccc(OCC(=O)Nc2ccc(Cl)cc2)c(-n2nc3ccccc3n2)c1 | inconclusive: 25.9 µM [inhibitor, single point] |
| CC(=O)Nc1ccc(NC(=O)COC(=O)/C(=C/c2ccccc2)n2nnnc2C)cc1 | inconclusive: 35.5 µM [inhibitor, partial curve, poor fit] |
